Drawing on publication PMC6960213, this text covers binding for 2 molecules.

Sequences of proteins named here, by UniProt entry; tags and fusion partners are left off.
UniProt P31323: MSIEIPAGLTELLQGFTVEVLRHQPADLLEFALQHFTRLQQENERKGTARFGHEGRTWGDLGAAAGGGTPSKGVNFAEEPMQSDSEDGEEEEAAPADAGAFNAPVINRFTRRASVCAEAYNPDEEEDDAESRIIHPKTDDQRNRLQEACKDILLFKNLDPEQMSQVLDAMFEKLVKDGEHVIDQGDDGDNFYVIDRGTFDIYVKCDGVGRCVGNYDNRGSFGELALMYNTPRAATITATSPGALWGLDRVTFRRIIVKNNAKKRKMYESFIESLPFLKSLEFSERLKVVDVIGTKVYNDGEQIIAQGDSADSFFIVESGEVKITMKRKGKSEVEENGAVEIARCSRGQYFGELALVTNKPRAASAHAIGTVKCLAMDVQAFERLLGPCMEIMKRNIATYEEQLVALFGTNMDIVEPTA
UniProt P04406: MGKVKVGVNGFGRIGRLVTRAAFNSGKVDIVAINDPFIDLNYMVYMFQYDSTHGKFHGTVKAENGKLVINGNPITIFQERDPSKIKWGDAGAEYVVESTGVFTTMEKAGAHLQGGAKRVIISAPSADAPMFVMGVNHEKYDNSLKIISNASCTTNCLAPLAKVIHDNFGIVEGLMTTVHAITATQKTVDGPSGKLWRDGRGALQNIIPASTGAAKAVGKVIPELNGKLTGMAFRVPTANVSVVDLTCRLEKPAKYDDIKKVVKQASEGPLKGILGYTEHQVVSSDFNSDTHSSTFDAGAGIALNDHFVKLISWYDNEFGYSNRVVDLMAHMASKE

Results are given in words; binding and its absence hold for the method and conditions named. Binding seen in cells or lysates may run through a third protein. Where a sequence is shown, tags or fusion partners need not be part of it.

The test deals with GST-RIIβ (UniProt P31323). The experiment in a line: pull-down; GST-fusion proteins on glutathione Sepharose beads incubated with whole-cell lysates of HEK293 cells transfected with HA-RBP2, 3 h at 4 °C; lysis buffer 1× PBS, 0.5% Triton X-100 with protease inhibitors; four washes; western blot with anti-HA and anti-GAPDH; only the target purified. In general terms: In western blotting, separated proteins are transferred to a membrane and probed.

Turning to GAPDH (from UniProt P04406 1-335), the binding entry was “no binding”.

B1: HA-tagged rat RIM-binding protein 2 (HA-rRBP2) (protein, UniProt Q9JIR1 1-1049)
chain: MREAAERRQQLELEHEQALAILNAKQQEIQLLQQSKVRELEEKCRVQSEQFNLLSRDLEKFRQHAGSIDLLGSNSVALLDVPLAPGKPFSQYMNGLATSIHKGHEGPTGHYSVIGDYIPLSGDKLESPCVKPSFLLRSSSPRCRFESEMDDDRSSNKSKHSSSGKVHLCVARYSYNPFDGPNENPEAELPLTAGKYLYVYGDMDEDGFYEGELLDGQRGLVPSNFVDFIQDNESRFAGTLGSEQDQNFLNHSGISLERDSILHLHSPTQVDSGITDNGGGTLDVNIDDIGEDIVPYPRKITLIKQLAKSVIVGWEPPAVPPGWGTVSSYNVLVDKETRMSLALGRRTKALIEKLNTAACTYRISVQCVTSRGNSDELQCTLLVGKDVVVAPSQLRVDNITQISAQLSWLPTNSNYSHIIFLNEEELDIVKAARYKYQFFNLRPNMAYKVKVLAQPHQMPWQLPLEQREKDEACVEFSTLPAGPPAPPQDVTVQAGATTASVQVSWKPPALTPTGLSNGANVTGYGVYAKGQRVAEVIAPTANGAAVELVRLRSLEAKAVSVRTLSAQGESMDSALAAIPPDLLVPPAPHPRTAPPPKPLTSDMDTKDLGPHVKVDESWEQSRPPGPAHGHMLEPPDMHSTGPGRRSPSPSRILPQPQGAPVSTTVAKAMAREAAQRVAETSKLEKRSLFLEQSSAGPYANSDEEDGYASPEVKRRGTSVDDFLKGSELGQQPHCCHGDEYHTESSRGSDLSDIMEEDEEELYSEMQLEDGGRRRPSGTSHNALKILGNSALMGRGDRMEHVSRRYSHSGGGPQRHRPMAPSIDEYTGRDHLSPDFYDESETDPGAEELPARIFVALFDYDPLTMSPNPDAAEEELPFKEGQIIKVYGDKDADGFYRGETCARLGLIPCNMVSEIHADDEEMMDQLLRQGFLPLNTPVEKIERSRRSGRGHSVPTRRMVALYDYDPRESSPNVDVEAELLFCTGDIITVFGEIDEDGFYYGELNGQKGLVPSNFLEEVPDDVEVHLSDAPPHYSHDPPMRTKAKRVSQPP
In the case of B1, the binding entry is listed as “no binding”.
